Results of single-concentration screens

Protein sequences, listed by entry. Tags and fused reporters are not part of them. Residues count along the entry.
UniProt P9WPC5, whole entry: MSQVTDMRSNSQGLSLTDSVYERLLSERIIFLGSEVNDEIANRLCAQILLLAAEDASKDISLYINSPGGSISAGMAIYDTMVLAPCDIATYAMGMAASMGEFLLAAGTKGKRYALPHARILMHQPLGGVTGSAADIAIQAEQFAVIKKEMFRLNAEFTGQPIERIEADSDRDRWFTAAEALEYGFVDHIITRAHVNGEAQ
UniProt P9WPC3, whole entry partner: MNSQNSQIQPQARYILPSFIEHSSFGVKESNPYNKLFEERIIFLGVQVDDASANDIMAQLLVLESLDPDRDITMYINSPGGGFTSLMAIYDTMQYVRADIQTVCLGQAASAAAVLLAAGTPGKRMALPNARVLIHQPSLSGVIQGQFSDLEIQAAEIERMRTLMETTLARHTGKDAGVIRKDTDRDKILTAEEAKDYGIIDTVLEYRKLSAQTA
UniProt I6X8D2, whole entry: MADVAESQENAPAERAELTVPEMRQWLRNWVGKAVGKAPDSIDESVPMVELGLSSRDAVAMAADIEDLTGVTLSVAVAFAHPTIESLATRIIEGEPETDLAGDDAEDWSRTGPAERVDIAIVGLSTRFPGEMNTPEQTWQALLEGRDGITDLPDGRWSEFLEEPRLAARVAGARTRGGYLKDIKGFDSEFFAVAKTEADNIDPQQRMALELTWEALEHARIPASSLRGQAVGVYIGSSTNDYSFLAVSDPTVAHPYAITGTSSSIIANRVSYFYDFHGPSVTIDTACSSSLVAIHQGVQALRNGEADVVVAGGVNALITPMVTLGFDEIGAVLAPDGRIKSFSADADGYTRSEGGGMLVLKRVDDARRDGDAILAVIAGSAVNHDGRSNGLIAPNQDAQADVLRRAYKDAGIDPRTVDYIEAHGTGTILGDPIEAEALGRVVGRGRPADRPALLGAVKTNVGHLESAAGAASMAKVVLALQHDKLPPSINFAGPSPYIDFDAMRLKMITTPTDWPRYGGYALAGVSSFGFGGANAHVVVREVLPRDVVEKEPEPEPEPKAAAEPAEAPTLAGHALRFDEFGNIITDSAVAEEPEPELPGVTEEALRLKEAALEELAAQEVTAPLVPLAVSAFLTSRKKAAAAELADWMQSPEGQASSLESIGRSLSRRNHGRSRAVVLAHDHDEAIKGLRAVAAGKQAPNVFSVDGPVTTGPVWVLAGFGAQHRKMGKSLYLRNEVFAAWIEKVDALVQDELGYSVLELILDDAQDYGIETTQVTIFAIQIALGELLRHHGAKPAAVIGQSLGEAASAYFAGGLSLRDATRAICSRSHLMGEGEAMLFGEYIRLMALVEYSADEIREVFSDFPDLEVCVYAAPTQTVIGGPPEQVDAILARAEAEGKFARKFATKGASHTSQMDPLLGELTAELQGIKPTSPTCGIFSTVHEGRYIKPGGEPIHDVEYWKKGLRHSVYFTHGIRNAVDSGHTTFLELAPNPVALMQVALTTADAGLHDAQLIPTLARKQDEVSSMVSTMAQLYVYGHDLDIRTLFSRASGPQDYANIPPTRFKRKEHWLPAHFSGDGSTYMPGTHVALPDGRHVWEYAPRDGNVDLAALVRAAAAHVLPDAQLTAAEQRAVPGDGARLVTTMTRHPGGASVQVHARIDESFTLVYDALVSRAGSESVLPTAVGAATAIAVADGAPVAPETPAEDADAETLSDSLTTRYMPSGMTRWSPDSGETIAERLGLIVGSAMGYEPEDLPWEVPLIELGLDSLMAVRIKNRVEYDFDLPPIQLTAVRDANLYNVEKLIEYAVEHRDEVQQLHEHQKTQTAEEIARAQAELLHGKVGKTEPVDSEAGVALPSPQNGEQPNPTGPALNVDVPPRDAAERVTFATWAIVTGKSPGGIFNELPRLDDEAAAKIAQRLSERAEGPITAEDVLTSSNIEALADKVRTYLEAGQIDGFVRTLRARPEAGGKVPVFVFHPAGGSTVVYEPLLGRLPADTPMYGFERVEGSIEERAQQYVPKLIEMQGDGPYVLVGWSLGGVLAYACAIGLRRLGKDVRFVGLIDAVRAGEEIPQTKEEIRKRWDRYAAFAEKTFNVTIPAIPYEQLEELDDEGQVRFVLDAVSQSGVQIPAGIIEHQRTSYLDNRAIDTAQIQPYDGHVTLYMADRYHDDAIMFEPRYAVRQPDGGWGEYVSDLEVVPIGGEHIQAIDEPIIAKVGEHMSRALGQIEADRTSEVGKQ
UniProt P9WNZ1, whole entry: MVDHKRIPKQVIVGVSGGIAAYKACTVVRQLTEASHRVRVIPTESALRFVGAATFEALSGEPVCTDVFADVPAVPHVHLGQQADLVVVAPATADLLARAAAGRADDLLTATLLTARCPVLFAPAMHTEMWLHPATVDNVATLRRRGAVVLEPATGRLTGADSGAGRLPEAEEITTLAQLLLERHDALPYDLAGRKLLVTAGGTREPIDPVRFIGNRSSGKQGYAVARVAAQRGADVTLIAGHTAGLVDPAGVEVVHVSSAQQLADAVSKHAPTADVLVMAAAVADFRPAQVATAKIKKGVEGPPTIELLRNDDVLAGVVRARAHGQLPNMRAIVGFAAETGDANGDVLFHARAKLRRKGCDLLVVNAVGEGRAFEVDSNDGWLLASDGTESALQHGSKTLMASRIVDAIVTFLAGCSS
UniProt A4I591, 1-473: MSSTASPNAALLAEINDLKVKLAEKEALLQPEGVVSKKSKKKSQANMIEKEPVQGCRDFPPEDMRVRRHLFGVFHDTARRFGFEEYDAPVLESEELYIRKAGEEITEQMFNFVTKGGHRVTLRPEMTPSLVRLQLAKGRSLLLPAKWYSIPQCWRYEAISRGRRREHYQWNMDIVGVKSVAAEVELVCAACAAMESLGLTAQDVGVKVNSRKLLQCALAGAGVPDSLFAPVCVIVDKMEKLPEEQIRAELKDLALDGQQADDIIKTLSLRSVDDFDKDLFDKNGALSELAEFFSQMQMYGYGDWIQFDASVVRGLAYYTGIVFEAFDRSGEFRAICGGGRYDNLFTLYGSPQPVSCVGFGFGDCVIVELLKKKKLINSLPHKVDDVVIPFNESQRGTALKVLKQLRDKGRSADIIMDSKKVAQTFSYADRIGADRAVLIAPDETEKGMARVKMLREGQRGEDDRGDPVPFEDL
UniProt Q4DA54, 1-478: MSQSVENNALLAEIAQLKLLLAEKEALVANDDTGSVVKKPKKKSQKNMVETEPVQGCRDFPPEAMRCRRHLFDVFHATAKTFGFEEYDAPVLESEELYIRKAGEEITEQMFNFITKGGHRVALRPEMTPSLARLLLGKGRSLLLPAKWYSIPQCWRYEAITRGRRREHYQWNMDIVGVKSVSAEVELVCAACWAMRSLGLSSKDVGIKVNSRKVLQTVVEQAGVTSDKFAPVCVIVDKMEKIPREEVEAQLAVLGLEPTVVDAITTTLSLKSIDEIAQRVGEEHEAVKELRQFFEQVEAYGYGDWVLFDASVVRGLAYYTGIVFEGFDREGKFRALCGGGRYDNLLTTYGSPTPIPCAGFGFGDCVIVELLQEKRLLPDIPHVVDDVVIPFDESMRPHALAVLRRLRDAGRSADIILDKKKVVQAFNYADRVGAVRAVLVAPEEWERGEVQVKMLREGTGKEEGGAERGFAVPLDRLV

Values are the deposited “Percent Effect”, in %. The controls that fix the scale are not given in the record; negative values are as filed. The compounds are a random part of those screened. A dash means the value is not listed here; it may have been measured.

A: 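Protease assay of ClpP1P2, read by the AMC dye that it sets free. Target: ClpP1P2, Mycobacterium tuberculosis (UniProt P9WPC5 and UniProt P9WPC3). Tested at 50 µM. Higher reads as stronger inhibition, judged from the few compounds that gave an IC50. Most other retested compounds had strongly negative values. Of about 69,000 compounds tested this way, about 10 (0.015%) reached 50% or more in at least one test.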
B: 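Polyketide synthase Pks13, Mycobacterium tuberculosis (UniProt I6X8D2). Enzyme assay of the thioesterase domain of polyketide synthase 13; the read-out is not stated. Tested at 30 µM. The record gives no direction; the compounds picked for IC50 retests had high values, so higher reads as stronger inhibition. Size under these conditions: about 67,000 compounds, about 300 of them at 50% or above in at least one test.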
C: 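Enzyme assay of CoaBC with a phosphate dye (Biomol Green) read at 650 nm. Target: Coenzyme A biosynthesis protein CoaBC, Mycobacterium tuberculosis (UniProt P9WNZ1). Tested at 30 µM. Higher reads as stronger inhibition, judged from the few compounds that gave an IC50. Most strong results did not repeat in a second test. About 67,000 compounds were tested under these conditions; 0.06% (about 40) showed 50% or more at least once.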
D: 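Enzyme assay of histidyl-tRNA synthetase; the read-out is not stated. Target: Histidine-tRNA ligase, Leishmania infantum (UniProt A4I591). Compounds at 30 µM. The record gives no direction; compounds that gave an IC50 in retests scored well above the rest, so higher reads as stronger inhibition. The assay is labelled LdHisRS but filed under L. infantum. Size under these conditions: about 69,000 compounds, about 410 of them at 50% or above in at least one test.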
E: 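Histidine-tRNA ligase, Trypanosoma cruzi CL Brener (UniProt Q4DA54). Enzyme assay of histidyl-tRNA synthetase; the read-out is not stated. Compounds at 30 µM. Direction is inferred from retests: higher values go with stronger inhibition. About 69,000 compounds were tested under these conditions; 0.045% (about 31) showed 50% or more at least once.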

Compound,A,B,C,D,E
O=C(NC1CCCc2c1[nH]c1ccc(F)cc21)c1n[nH]c2c1CCCC2 (stereo not drawn),-2.577%,36.42%,0.3645%,17.39%,1.98%
CC(C)[C@@H]1CN(Cc2cnc(C3CCCCC3)nc2)C[C@H]1N(C)C,14.67%,-24.32%,-17.36%,16.44%,3.279%
O=C(C[C@@H]1COC[C@H]2CN(C3CCCC3)C[C@@H]12)N1CCCCO1,12.06%,-17.45%,-1.018%,15.79%,-5.747%
CC(C)Oc1cccc(CC(=O)N(CC(N)=O)C2CCCC2)c1,-3.343%,-2.628%,3.733%,7.895%,6.897%
COCC1CN(Cc2ccc(C)o2)Cc2cnn(CC3CCOCC3)c21 (stereo not drawn),-14.03%,-7.216%,2.447%,31.51%,4.95%
CCCn1ncc(C(=O)N2CCN(C3Cc4ccccc4C3)CC2)c1C,-18.8%,-4.337%,4.139%,3.509%,5.464%
CC(C)(NC(=O)c1cnc(C(C)(C)C)s1)C(N)=O,-0.6111%,-10.09%,-1.818%,4.839%,2.041%
Cc1cnn(CC2CCCCN2CC(=O)N(C)Cc2ccc(C)o2)c1 (stereo not drawn),-13.41%,-30.67%,0.641%,12.33%,0%
COc1c(C2CCCN2Cc2noc(C)n2)c(C)nn1C (stereo not drawn),32.34%,0.3995%,1.654%,-16.52%,-3.944%
Cc1cc(C)c2c(NC(C)c3nncn3C3CCCC3)ncnc2n1 (stereo not drawn),-22.89%,-10.94%,6.415%,14.16%,8.036%
Cn1c(C(=O)N2CCC(C(=O)N3CCCC3)CC2)c(Cl)c2ccccc21,-6.98%,-5.502%,-6.25%,24.27%,2.075%
NC(=O)CC1CCN(CC(O)c2ccc(Br)cc2)CC1 (stereo not drawn),5.805%,-24.89%,10.2%,18.75%,2.128%
O=C(NCCc1nc(C2CC2)no1)[C@H]1CNC[C@H](C(=O)N2CCCC2)C1,19.94%,1.246%,3.716%,3.191%,12.06%
CN1CC(NC(=O)CCCc2cc(Cl)sc2Cl)CCC1=O (stereo not drawn),-5.659%,-,0.6483%,-4.762%,3.03%
CCn1ncc2c1C(COC)N(C(=O)c1ccc3c(c1)OCO3)CC2 (stereo not drawn),5.634%,-18.96%,-4.713%,24%,12.64%
Cc1noc([C@H]2C[C@H]3OCC[C@H]3N(Cc3scnc3C)C2)n1,4.645%,-15.6%,3.046%,26.47%,8.867%
O=C(NCCc1ccccc1)C1CCC(Cn2cnnn2)CC1 (stereo not drawn),0.1509%,-28.21%,2.019%,0%,1.639%
CCOc1ccc(N2CCC(C(O)c3ccccc3)CC2)nn1 (stereo not drawn),8.095%,-16.99%,-,14.17%,-5.263%
O=C1NCc2ccccc2CC12CCCN(Cc1ccsc1)C2 (stereo not drawn),14.79%,-11.29%,5.526%,15.17%,6.509%
COC(=O)CCCNC(=O)c1cc(COc2cncc(Cl)c2)on1,-7.397%,7.478%,-4.545%,-4%,2.89%
CCc1nc(CN2CCN(C(=O)COCc3ccccc3)CC2)no1,-4.954%,-17.16%,2.203%,9.434%,-1.695%
COc1ncccc1NC(=O)NC1CCOc2ccccc21 (stereo not drawn),2.89%,0.7131%,10.12%,18.46%,-4.981%
CSCc1noc(CNS(=O)(=O)c2cccc(C(=O)NC3CC3)c2)n1,6.926%,-13.44%,0.4854%,19.28%,2.762%
CCCNC(=O)CCC(=O)n1nc(C)c2ccccc21,18.15%,-13.53%,-1.805%,8.989%,8.543%
Clc1ccc2cccnc2c1CN1CCCCC1Cn1cncn1 (stereo not drawn),-22.48%,-14.64%,5.604%,11.01%,9.038%
Cc1cccc(-c2noc(Cn3nc(C(N)=O)ccc3=O)n2)c1,-3.729%,3.933%,8.751%,5%,0%
COCCN1C[C@@H]2[C@@H](OC)CCN(Cc3ccncc3)[C@@H]2C1,-11.94%,-6.52%,4.069%,19.35%,1.754%
COCc1nc2ncc3c(=O)n(-c4ccc(C(C)=O)cc4)ccc3n2n1,-6.733%,12.25%,5.051%,11.7%,0%
O=C(NCc1ccnc(OCC(F)(F)F)c1)NCC1CCOC1 (stereo not drawn),9.949%,-21.74%,7.135%,16.67%,5.208%
Cc1nnc(NCC(c2ccco2)N2CCCC2)c(C#N)c1C (stereo not drawn),6.453%,0.4727%,6.364%,60.27%,10.27%
CNc1cc2c(nn1)CCN(C(=O)c1ccc3c(c1)CCC3)C2,-9.651%,4.117%,6.266%,15.04%,9.621%
COc1cccc(COCC(=O)N2CCCN(CC(N)=O)CC2)c1,-22.58%,1.31%,2.662%,17.86%,4.734%
CCOCCCNC(=O)c1cc(OC)c2ccoc2c1,-2.193%,-19.54%,7.746%,12.5%,-0.8772%
CC(C)CCN1CCC2(CNS(=O)(=O)c3cccnc3O2)C1 (stereo not drawn),20.52%,-34.39%,-1.579%,-1.379%,1.775%
Cc1noc(C)c1CCCNC(=O)C1CCN(C(=O)C2CC2)CC1,8.299%,-21.71%,3.121%,9.917%,1.02%
CN(C)C(=O)N1C[C@@H]2COC[C@]2(c2nnc(C3CC3)o2)C1,-7.808%,-27.64%,1.142%,12.33%,-0.9901%
CN(Cc1ccncn1)c1nccc(CCC(F)(F)F)n1,12.62%,10.07%,-,8.571%,3.896%
CCn1cnnc1C1CCN(C(=O)c2cccc(-n3cccc3)c2)CC1,2.608%,-5.107%,4.452%,2.247%,10.55%
O=C(c1ccc(CNC2CCSC2)cc1)N1CCCC1 (stereo not drawn),-0.41%,-42%,4.436%,16.46%,3.879%
Cc1ccoc1C(=O)N1CCCC2(CCCN2S(C)(=O)=O)C1 (stereo not drawn),-12.18%,0.4531%,-14.49%,-93.42%,-39.13%
O=C(CCC(=O)N1CCNC(=O)C1c1cccc(F)c1)NC1CCCC1 (stereo not drawn),1.19%,12.03%,-2.331%,15.69%,6.173%
CCCc1cc(N2CCCCC2Cn2cc(C)cn2)n2ncnc2n1 (stereo not drawn),-8.403%,-11.93%,-,15.83%,9.211%
CSc1cccc(CN2CCC(CCC(=O)Nc3ccccc3)CC2)c1,-13%,-44.78%,-12.82%,8.547%,2.703%
CSc1ccc(CN(C(=O)c2cc[nH]n2)C2CC2)cc1,-6.096%,-21.86%,3.226%,10.53%,5.028%
CC(C)(C)Oc1ccc(CN)c(C(F)(F)F)c1,-13.74%,-27.4%,1.636%,13.27%,-0.4425%
COC1COC2(CCN(Cc3ccccc3F)CC2)C1 (stereo not drawn),-3.366%,-3.376%,3.008%,17.95%,3.659%
Cc1cnn(CC2CCCN2C(=O)c2n[nH]c3ccccc23)c1 (stereo not drawn),-19.74%,-27.33%,5.227%,10.71%,5.187%
c1cc(-c2ccc3c(c2)CCC32CCNCC2)ccn1,16.89%,13.69%,-,53.45%,-1.266%
Cc1nnc2n1CCN(C(=O)c1ccnc(N(C)C)c1)C2,-10.61%,-9.725%,5.455%,8.929%,4.611%

Some entries from above, unchanged:

| Compound | A | B | C | D | E |
|---|---|---|---|---|---|
| `CC(C)CCN1CCC2(CNS(=O)(=O)c3cccnc3O2)C1` (stereo not drawn) | 20.52% | -34.39% | -1.579% | -1.379% | 1.775% |
| `CN(Cc1ccncn1)c1nccc(CCC(F)(F)F)n1` | 12.62% | 10.07% | - | 8.571% | 3.896% |
| `O=C(C[C@@H]1COC[C@H]2CN(C3CCCC3)C[C@@H]12)N1CCCCO1` | 12.06% | -17.45% | -1.018% | 15.79% | -5.747% |
| `O=C(c1ccc(CNC2CCSC2)cc1)N1CCCC1` (stereo not drawn) | -0.41% | -42% | 4.436% | 16.46% | 3.879% |

Data taken from ChEMBL document CHEMBL3988442, “University of Dundee, Small-Polar-MMV Screening Library” (2021).